# Results reported in the supplement of paper PMC12067093, “Discovery and optimisation of a covalent ligand for TRIM25 and its application to targeted protein ubiquitination” (Chemical Science, 2025).
# Protein sequences, listed by entry. Tags and fused reporters are not part of them. Lines headed by an entry give the natural chain unless they say otherwise; changes in a name come on top.
# UniProt P56270: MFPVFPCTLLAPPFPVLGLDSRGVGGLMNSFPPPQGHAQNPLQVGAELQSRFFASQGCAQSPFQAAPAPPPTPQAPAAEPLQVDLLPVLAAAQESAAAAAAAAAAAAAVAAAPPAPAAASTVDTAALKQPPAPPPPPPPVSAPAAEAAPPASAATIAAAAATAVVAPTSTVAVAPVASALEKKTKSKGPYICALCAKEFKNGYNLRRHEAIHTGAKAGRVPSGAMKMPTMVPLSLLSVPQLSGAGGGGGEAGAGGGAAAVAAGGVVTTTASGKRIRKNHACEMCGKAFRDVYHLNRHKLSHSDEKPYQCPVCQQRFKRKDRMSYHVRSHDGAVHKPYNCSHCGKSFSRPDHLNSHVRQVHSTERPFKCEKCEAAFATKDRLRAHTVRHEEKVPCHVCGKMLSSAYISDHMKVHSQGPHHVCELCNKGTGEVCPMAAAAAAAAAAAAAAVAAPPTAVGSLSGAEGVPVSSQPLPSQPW
# UniProt Q13257, whole entry: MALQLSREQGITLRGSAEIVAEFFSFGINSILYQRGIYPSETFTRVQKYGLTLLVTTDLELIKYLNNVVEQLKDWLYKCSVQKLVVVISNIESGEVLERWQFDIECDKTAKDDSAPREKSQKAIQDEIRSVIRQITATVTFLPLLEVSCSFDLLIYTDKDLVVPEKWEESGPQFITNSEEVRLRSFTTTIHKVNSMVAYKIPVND
# UniProt Q16539, whole entry, looked up: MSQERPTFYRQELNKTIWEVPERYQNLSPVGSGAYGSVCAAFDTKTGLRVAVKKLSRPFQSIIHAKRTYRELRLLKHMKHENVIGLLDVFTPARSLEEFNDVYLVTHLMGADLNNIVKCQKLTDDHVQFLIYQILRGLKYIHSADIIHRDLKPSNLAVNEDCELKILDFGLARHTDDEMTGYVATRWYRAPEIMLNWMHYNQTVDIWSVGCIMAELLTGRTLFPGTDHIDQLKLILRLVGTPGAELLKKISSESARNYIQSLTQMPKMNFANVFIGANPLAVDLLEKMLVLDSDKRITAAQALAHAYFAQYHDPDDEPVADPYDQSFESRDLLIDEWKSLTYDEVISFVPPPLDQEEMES
# UniProt Q8IV50: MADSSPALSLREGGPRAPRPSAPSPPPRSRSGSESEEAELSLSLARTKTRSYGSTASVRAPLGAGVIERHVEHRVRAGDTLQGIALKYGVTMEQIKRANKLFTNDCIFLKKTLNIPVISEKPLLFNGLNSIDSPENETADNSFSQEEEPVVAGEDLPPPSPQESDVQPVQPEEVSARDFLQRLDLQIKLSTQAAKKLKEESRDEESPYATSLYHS
# UniProt O94822: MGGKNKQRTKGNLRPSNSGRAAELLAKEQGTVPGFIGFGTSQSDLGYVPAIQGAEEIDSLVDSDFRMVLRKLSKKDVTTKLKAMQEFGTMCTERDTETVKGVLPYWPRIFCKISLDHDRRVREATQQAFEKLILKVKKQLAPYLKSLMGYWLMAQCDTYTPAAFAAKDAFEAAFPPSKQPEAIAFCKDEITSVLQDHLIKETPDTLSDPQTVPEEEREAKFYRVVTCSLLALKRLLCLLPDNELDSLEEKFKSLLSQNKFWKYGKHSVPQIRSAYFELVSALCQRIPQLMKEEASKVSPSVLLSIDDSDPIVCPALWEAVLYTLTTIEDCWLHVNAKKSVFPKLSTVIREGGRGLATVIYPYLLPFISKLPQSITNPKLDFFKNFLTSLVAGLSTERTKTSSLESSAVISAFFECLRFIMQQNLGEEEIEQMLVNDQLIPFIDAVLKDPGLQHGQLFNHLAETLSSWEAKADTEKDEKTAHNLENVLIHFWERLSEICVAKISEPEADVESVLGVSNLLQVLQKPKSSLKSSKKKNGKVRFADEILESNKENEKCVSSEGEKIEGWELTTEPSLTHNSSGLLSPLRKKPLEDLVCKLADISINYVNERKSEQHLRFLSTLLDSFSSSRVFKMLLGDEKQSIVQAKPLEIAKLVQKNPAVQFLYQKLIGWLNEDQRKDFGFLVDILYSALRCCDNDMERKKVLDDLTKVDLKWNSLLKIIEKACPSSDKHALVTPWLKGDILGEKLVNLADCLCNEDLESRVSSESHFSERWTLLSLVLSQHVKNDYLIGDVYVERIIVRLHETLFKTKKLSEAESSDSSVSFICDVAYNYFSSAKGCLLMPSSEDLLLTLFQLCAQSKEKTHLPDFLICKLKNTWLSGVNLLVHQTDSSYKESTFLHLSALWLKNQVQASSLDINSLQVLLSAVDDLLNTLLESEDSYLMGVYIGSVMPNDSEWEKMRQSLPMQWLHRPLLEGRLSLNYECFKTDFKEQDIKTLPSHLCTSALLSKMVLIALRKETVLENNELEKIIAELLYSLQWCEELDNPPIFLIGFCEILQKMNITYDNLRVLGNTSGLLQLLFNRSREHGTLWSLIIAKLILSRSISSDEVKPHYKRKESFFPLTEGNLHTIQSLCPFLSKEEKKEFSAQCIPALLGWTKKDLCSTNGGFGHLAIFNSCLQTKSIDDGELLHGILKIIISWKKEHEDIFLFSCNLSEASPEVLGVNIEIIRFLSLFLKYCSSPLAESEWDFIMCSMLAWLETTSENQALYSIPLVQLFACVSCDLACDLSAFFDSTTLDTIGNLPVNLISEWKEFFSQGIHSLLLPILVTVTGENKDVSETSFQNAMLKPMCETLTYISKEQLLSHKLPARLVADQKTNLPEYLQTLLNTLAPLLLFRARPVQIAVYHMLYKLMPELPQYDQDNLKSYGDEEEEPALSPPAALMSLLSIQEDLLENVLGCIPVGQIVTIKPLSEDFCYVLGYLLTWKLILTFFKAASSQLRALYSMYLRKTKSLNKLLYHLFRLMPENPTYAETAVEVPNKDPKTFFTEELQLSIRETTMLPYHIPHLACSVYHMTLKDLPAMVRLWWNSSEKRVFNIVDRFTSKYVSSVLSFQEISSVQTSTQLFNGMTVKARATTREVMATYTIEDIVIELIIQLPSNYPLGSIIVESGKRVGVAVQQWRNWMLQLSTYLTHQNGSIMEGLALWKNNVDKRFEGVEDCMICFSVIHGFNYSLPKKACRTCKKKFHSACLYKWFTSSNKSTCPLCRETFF
# UniProt Q9P2G4: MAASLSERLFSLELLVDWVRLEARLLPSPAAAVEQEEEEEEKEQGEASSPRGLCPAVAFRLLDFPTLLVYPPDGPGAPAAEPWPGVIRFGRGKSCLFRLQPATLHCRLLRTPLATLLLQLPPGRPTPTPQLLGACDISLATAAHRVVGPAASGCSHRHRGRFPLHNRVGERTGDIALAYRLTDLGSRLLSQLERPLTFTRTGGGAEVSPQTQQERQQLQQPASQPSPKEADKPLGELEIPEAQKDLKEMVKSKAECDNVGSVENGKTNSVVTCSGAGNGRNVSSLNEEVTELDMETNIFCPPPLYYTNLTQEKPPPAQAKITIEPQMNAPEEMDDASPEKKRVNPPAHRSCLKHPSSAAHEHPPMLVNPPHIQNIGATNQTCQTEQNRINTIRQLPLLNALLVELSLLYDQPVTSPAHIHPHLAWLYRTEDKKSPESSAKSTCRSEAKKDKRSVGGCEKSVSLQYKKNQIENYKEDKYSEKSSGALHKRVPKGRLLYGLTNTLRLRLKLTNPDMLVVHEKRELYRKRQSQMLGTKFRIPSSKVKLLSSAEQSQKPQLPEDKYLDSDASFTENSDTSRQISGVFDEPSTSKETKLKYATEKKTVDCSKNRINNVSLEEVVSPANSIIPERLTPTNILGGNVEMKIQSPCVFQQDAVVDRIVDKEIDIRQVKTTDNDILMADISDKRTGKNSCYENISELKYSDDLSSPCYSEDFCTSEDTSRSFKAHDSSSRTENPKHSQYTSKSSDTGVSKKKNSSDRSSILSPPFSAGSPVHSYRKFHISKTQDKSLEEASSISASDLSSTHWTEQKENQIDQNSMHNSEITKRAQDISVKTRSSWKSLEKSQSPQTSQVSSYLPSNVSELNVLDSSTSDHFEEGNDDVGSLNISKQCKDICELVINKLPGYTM
# UniProt Q9NR56: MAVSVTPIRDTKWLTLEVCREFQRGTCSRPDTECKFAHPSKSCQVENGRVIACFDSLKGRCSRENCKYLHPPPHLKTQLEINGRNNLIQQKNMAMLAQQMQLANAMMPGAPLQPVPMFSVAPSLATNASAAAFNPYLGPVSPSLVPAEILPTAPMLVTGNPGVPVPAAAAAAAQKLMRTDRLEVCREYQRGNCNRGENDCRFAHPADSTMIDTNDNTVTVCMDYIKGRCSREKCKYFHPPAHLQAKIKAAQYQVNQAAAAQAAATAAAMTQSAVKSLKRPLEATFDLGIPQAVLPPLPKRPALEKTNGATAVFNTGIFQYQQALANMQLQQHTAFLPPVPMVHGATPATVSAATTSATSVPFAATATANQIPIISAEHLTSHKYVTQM
# UniProt Q7L5Y9: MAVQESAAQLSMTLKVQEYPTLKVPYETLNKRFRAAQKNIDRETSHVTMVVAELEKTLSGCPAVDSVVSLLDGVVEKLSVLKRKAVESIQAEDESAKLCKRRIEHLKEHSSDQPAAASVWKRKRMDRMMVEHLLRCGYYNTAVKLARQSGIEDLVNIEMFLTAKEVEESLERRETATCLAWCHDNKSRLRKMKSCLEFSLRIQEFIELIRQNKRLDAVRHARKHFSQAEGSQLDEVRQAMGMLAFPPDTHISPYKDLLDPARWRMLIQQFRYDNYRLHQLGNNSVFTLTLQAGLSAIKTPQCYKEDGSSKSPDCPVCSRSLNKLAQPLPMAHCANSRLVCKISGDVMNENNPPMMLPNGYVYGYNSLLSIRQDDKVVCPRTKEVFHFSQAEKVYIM
# UniProt Q9UBB5, whole entry, looked up: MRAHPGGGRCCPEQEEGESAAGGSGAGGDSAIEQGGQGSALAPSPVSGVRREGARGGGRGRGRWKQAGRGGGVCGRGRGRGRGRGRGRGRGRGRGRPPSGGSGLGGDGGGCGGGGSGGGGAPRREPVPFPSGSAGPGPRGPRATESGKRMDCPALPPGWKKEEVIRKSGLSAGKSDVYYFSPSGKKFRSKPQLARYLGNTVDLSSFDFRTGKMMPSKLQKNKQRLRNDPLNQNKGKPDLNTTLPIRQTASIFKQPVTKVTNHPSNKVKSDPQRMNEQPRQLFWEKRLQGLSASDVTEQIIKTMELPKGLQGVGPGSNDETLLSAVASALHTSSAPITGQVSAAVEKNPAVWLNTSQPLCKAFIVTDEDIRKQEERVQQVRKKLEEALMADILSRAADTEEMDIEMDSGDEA
# UniProt Q66K74: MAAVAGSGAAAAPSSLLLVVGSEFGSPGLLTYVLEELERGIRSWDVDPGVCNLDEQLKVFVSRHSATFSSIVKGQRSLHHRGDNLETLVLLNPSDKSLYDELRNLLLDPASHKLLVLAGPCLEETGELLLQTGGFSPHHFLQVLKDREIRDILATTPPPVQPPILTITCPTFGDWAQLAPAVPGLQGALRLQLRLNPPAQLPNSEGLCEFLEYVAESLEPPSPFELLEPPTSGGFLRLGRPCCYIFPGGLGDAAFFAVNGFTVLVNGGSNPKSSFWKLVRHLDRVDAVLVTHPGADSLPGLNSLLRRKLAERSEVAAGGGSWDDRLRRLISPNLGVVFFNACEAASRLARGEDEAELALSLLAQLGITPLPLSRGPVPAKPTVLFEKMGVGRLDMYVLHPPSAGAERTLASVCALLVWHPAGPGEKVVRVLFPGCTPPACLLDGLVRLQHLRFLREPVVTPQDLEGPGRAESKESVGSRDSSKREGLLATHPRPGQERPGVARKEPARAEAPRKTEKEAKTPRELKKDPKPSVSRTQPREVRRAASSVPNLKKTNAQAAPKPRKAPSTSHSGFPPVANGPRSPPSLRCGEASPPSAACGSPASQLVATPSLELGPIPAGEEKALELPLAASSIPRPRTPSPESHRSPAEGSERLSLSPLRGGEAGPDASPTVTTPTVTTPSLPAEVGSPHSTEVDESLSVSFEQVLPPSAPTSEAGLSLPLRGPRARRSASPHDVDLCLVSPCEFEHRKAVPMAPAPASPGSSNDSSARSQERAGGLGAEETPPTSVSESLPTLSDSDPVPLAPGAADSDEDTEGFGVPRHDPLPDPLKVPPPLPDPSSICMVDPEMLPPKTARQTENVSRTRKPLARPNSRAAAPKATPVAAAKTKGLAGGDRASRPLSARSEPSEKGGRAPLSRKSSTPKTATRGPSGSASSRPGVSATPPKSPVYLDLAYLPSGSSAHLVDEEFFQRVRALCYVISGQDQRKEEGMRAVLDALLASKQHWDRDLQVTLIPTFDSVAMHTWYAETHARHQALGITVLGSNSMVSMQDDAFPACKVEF
# UniProt P27361, whole entry: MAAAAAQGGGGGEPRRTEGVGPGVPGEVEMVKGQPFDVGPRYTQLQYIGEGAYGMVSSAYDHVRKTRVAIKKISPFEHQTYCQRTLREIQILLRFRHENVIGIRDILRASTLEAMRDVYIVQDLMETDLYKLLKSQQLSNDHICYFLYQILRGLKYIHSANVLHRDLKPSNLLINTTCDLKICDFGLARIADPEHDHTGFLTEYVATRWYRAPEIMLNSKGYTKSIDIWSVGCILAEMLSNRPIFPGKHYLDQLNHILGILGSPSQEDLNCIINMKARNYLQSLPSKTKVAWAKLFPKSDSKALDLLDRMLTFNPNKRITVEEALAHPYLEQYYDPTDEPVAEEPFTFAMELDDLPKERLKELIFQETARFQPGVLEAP
# This is one part of the list.
# Compound: CC1Cc2ccccc2N1C(=O)C1CCCN(C1)C(=O)CCl (mixture of isomers) [TRIM25 ligand 11 (diastereomer mixture)]
# Assay: probe-labelled cysteine peptide fold change vs DMSO (competition) (log2 fold change); higher = less target engagement (more negative = stronger competition)
# Details: 10 µM; THP-1; incubation time: 4 h
# 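Note: competitive chemoproteomic profiling in live THP-1 cells with an iodoacetamide desthiobiotin (IA-DTB) probe, comparing probe-labelled peptide intensities in compound-treated cells against DMSO-treated controls.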
row,Target,probe-labelled cysteine peptide fold change
1,MAN1A1_P33908_579_WAWEAVEALENHCR (UniProt P33908),-0.0183
2,MBD4_O95243_296_TVCISDAGACGETLSVTSEENSLVK (UniProt O95243),0.174
3,MACF1_Q9UPN3_5049_HQLEIFDALGSQACSNK (UniProt Q9UPN3),0.154
4,MAZ_P56270_424_VHSQGPHHVCELCNK (UniProt P56270),-0.0165
5,MAD2L1_Q13257_106_WQFDIECDK (UniProt Q13257),0.158
6,MAPK14_Q16539_39_YQNLSPVGSGAYGSVCAAFDTK (UniProt Q16539),-0.107
7,MAP3K1_Q13233_1012_LQGFIPCR (UniProt Q13233),0.246
8,LY75_O60449_1089_HFVSLCQK (UniProt O60449),0.118
9,MAD1L1_Q9Y6D9_662_LTSLYAEHPGDCLIFK (UniProt Q9Y6D9),0.00589
10,LYSMD2_Q8IV50_106_LFTNDCIFLK (UniProt Q8IV50),-0.322
11,LTN1_O94822_723_ACPSSDK (UniProt O94822),0.0252
12,MBIP_Q9NS73_243_DCGNQAVEER (UniProt Q9NS73),-0.0155
13,MAP10_Q9P2G4_605_TVDCSK (UniProt Q9P2G4),-0.174
14,MBNL1_Q9NR56_185_TDRLEVCR (UniProt Q9NR56),-0.206
15,LY75_O60449_477_VQSCEEK (UniProt O60449),0.0985
16,MARCH5_Q9NX47_46_WVHQACLQR (UniProt Q9NX47),-0.0321
17,MAEA_Q7L5Y9_136_CGYYNTAVK (UniProt Q7L5Y9),-0.0355
18,LTN1_O94822_91_AMQEFGTMCTER (UniProt O94822),-0.147
19,MBD2_Q9UBB5_111_GRPPSGGSGLGGDGGGCGGGGSGGGGAPR (UniProt Q9UBB5),-0.0117
20,MAP4K1_Q92918_334+335_SSSLGIPDADCCR (UniProt Q92918),-0.0222

row,Target,probe-labelled cysteine peptide fold change
1,MATR3_P43243_230_CRDDSFFGETSHNYHK (UniProt P43243),0.0188
2,MACF1_Q9UPN3_3315_TVSLTVCSAVK (UniProt Q9UPN3),-0.229
3,MATR3_P43243_552_EDAMAMVDHCLK (UniProt P43243),0.0586
4,MACF1_Q9UPN3_919_VISPTGNEAMVPSVCFLIPPPNK (UniProt Q9UPN3),0.0152
5,MBD2_Q9UBB5_359_NPAVWLNTSQPLCK (UniProt Q9UBB5),-0.0192
6,MAP2K2_P36507_384_RSEVEEVDFAGWLCK (UniProt P36507),-0.135
7,MAT2B_Q9NZL9_93_FEQVNLLDSNAVHHIIHDFQPHVIVHCAAER (UniProt Q9NZL9),-0.0278
8,LYZ_P61626_83_YWCNDGK (UniProt P61626),-0.0213
9,MAP1S_Q66K74_435_VLFPGCTPPACLLDGLVR (UniProt Q66K74),0.191
10,MACF1_Q9UPN3_3109_EIACGAQSEPFPCMTPRPEGLHYQESDGK (UniProt Q9UPN3),-0.00248
11,MACF1_Q9UPN3_2629_EGLLTNEAVLSPGMMHGIVDPENCR (UniProt Q9UPN3),0.077
12,LYAR_Q9NX58_9_VFFTCNACGESVK (UniProt Q9NX58),-0.03
13,MAD1L1_Q9Y6D9_134_QCQQNLDAASK (UniProt Q9Y6D9),-0.11
14,MACF1_Q9UPN3_877_AVCDYR (UniProt Q9UPN3),0.138
15,MAPK3_P27361_144_SQQLSNDHICYFLYQILR (UniProt P27361),-0.16
16,LYAR_Q9NX58_51_CISEDQK (UniProt Q9NX58),-0.0926
17,LYAR_Q9NX58_30_NCECLSCIDCGK (UniProt Q9NX58),-0.0598
18,MBNL1_Q9NR56_27_GTCSRPDTECK (UniProt Q9NR56),-0.108
19,MBD4_O95243_268_ESVCNK (UniProt O95243),-0.131
20,LTN1_O94822_1131_ESFFPLTEGNLHTIQSLCPFLSK (UniProt O94822),-0.0229

# Same assay, conditions: 50 µM; THP-1; incubation time: 4 h
row,Target,probe-labelled cysteine peptide fold change
1,MAN1A1_P33908_579_WAWEAVEALENHCR (UniProt P33908),-0.00169
2,MBD4_O95243_296_TVCISDAGACGETLSVTSEENSLVK (UniProt O95243),0.206
3,MACF1_Q9UPN3_5049_HQLEIFDALGSQACSNK (UniProt Q9UPN3),0.134
4,MAZ_P56270_424_VHSQGPHHVCELCNK (UniProt P56270),-0.273
5,MAD2L1_Q13257_106_WQFDIECDK (UniProt Q13257),0.188
6,MAPK14_Q16539_39_YQNLSPVGSGAYGSVCAAFDTK (UniProt Q16539),-0.0256
7,MAP3K1_Q13233_1012_LQGFIPCR (UniProt Q13233),0.159
8,LY75_O60449_1089_HFVSLCQK (UniProt O60449),0.16
9,MAD1L1_Q9Y6D9_662_LTSLYAEHPGDCLIFK (UniProt Q9Y6D9),-0.0309
10,LYSMD2_Q8IV50_106_LFTNDCIFLK (UniProt Q8IV50),-0.19
11,LTN1_O94822_723_ACPSSDK (UniProt O94822),0.0493
12,MBIP_Q9NS73_243_DCGNQAVEER (UniProt Q9NS73),-0.0072
13,MAP10_Q9P2G4_605_TVDCSK (UniProt Q9P2G4),-0.0642
14,MBNL1_Q9NR56_185_TDRLEVCR (UniProt Q9NR56),-0.177
15,LY75_O60449_477_VQSCEEK (UniProt O60449),0.21
16,MARCH5_Q9NX47_46_WVHQACLQR (UniProt Q9NX47),-0.0834
17,MAEA_Q7L5Y9_136_CGYYNTAVK (UniProt Q7L5Y9),0.121
18,LTN1_O94822_91_AMQEFGTMCTER (UniProt O94822),-0.3
19,MBD2_Q9UBB5_111_GRPPSGGSGLGGDGGGCGGGGSGGGGAPR (UniProt Q9UBB5),-0.261
20,MAP4K1_Q92918_334+335_SSSLGIPDADCCR (UniProt Q92918),-0.126

row,Target,probe-labelled cysteine peptide fold change
1,MATR3_P43243_230_CRDDSFFGETSHNYHK (UniProt P43243),-0.0509
2,MACF1_Q9UPN3_3315_TVSLTVCSAVK (UniProt Q9UPN3),-0.296
3,MATR3_P43243_552_EDAMAMVDHCLK (UniProt P43243),0.0873
4,MACF1_Q9UPN3_919_VISPTGNEAMVPSVCFLIPPPNK (UniProt Q9UPN3),0.0706
5,MBD2_Q9UBB5_359_NPAVWLNTSQPLCK (UniProt Q9UBB5),-0.0298
6,MAP2K2_P36507_384_RSEVEEVDFAGWLCK (UniProt P36507),-0.214
7,MAT2B_Q9NZL9_93_FEQVNLLDSNAVHHIIHDFQPHVIVHCAAER (UniProt Q9NZL9),-0.105
8,LYZ_P61626_83_YWCNDGK (UniProt P61626),-0.0161
9,MAP1S_Q66K74_435_VLFPGCTPPACLLDGLVR (UniProt Q66K74),0.311
10,MACF1_Q9UPN3_3109_EIACGAQSEPFPCMTPRPEGLHYQESDGK (UniProt Q9UPN3),-0.346
11,MACF1_Q9UPN3_2629_EGLLTNEAVLSPGMMHGIVDPENCR (UniProt Q9UPN3),-0.0196
12,LYAR_Q9NX58_9_VFFTCNACGESVK (UniProt Q9NX58),-0.0877
13,MAD1L1_Q9Y6D9_134_QCQQNLDAASK (UniProt Q9Y6D9),-0.317
14,MACF1_Q9UPN3_877_AVCDYR (UniProt Q9UPN3),0.0558
15,MAPK3_P27361_144_SQQLSNDHICYFLYQILR (UniProt P27361),0.327
16,LYAR_Q9NX58_51_CISEDQK (UniProt Q9NX58),-0.182
17,LYAR_Q9NX58_30_NCECLSCIDCGK (UniProt Q9NX58),-0.0603
18,MBNL1_Q9NR56_27_GTCSRPDTECK (UniProt Q9NR56),-0.0586
19,MBD4_O95243_268_ESVCNK (UniProt O95243),-0.259
20,LTN1_O94822_1131_ESFFPLTEGNLHTIQSLCPFLSK (UniProt O94822),-0.0456
